Patent publication US20100249408A1, “USE OF NOVEL COMPOUND HAVING AFFINITY FOR AMYLOID, AND PROCESS FOR PRODUCTION OF THE SAME” (NIHON MEDI-PHYSICS CO., LTD., priority 2007, published 2010)
Some entries share one result that the patent states for a list of compounds.

Chains of the proteins cited; added tags and fusions are not shown. Residues count along the entry.
UniProt P05067, 672-711 limits assumed: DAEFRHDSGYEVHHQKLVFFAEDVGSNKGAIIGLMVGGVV

What follows are compounds tested against T1, amyloid (aggregated Aβ1-40) (Homo sapiens, UniProt P05067) (assay: Measurement of amyloid affinity: in vitro binding test, inhibition of [125I]3′-I-BTA-0 binding). Details: inhibition of [125I]3′-I-BTA-0 (400 pmol/L) binding to aggregated Aβ1-40 (1 μmol/L), pH 7.4, 22° C., 3 hours.
T1 construct: Aβ1-40 (Peptide Institute) was dissolved in phosphate buffer (pH 7.4); purchased Peptide Institute
Procedure: Affinity of the present compounds with amyloid was examined by the following in vitro binding tests.
(1) Aβ1-40 (Peptide Institute) was dissolved in phosphate buffer (pH 7.4) and shaken at 37° C. for 62-72 hours, to obtain a suspension of aggregated Aβ (concentration: 1 mg/mL equivalent, hereinafter referred to as amyloid suspension in these Examples).
(3) According to the method described in a literature (Wang, Y., et al., J. Labeled Compounds Radiopharmaceut. 44, 5239 (2001)), [^125I]2-(3′-iodo-4′-aminophenyl)benzothiazole (hereinafter referred to as [^125I]3′-I-BTA-0) was prepared from a labeling precursor 2-(4′-aminophenyl)benzothiazole, and dissolved in ethanol. [^125I]sodium iodide of 12-71 MBq (10-30 μL in volume) was used for the production, to obtain [^125I]3′-I-BTA-0 of 1-22 MBq immediately after the synthesis.
(5) Samples in which [^125I]3′-I-BTA-0, each compound for evaluation and amyloid were dissolved in a 0.1% bovine serum albumin-containing phosphate buffer (pH 7.4) at final concentrations shown in Table 2 were prepared. The resulting samples were placed in each well (about 0.3 mL in volume) of a 96-well microplate.
(6) The microplate filled with the sample solutions was shaken at a given rate (400 rpm) at 22° C. for 3 hours. Then, each sample solution was filtered through a glass fiber filter (trade name: Mulutiscreen™-FC, manufactured by Millipore), to separate the [^125I3′-I-BTA-0 attached to amyloid from the [^125I]3′-I-BTA-0 free from amyloid.
(7) The glass fiber filter used for the filtration of each sample solution was washed with a 0.1% bovine serum albumin-containing phosphate buffer (pH 7.4) (0.5 mL×5), and radioactivity of the glass fiber filter was measured with an autowell gamma system (manufactured by Aloka, Type: ARC-301B).
(8) Separately, a solution containing 15 μmol/L of 6-Me-BTA-2, 400 pmol/L of [^125I]3′-I-BTA-0 and 1 μmol/L of Aβ1-40 in a 0.1% bovine serum albumin-containing phosphate buffer (pH 7.4) was prepared and subjected to the same procedures as described above in (6) and (7) to measure a radioactivity level. The measured radioactivity level was defined as the background radioactivity level, and used in the calculation of the inhibition ratio (hereinafter referred to as BG).
(9) Using the radioactivity levels measured above in (7) and (8), the inhibition ratio was determined by the following formula (1).
A graph in which values converted by probit transformation from the obtained inhibition ratios were plotted relative to logarithms of concentrations of compounds for evaluation was prepared to obtain an approximate straight line by the least square method. […] Using the value as an indicator, affinity of each compound for evaluation with amyloid (aggregated Aβ1-40) was evaluated.

Row | SMILES | IC50 [nM]
1 | Oc1ccc(-c2cn3cc(Br)ccc3n2)cc1 [Compound 1, 6-bromo-2-(4′-hydroxyphenyl)imidazo[1,2-a]pyridine] | < 100
2 | Oc1ccc(-c2cn3cc(I)ccc3n2)cc1 [Compound 2, 2-(4′-hydroxyphenyl)-6-iodoimidazo[1,2-a]pyridine] | < 100
3 | Oc1ccc(-c2cn3cc(OCCCF)ccc3n2)cc1 [Compound 3, 6-(3′-fluoropropoxy)-2-(4′-hydroxyphenyl)imidazo[1,2-a]pyridine] | < 100
4 | Oc1ccc(-c2cn3cc(I)cnc3n2)cc1 [Compound 4, 2-(4′-hydroxyphenyl)-6-iodoimidazo[1,2-a]pyrimidine] | < 100
